Test results taken from paper PMC11324527, “Cryo-EM architecture of a near-native stretch-sensitive membrane microdomain” (Nature, 2024).
Results are given in words; binding and its absence hold for the method and conditions named. Binding seen in cells or lysates may run through a third protein. A yes stands for co-enrichment or nearness to the bait. Other partners may have been found. No binding means not detected with the bait. Each block holds one binder with its values, some of them ahead of it.

Chains of the proteins cited; added tags and fusions are not shown.
UniProt P47041: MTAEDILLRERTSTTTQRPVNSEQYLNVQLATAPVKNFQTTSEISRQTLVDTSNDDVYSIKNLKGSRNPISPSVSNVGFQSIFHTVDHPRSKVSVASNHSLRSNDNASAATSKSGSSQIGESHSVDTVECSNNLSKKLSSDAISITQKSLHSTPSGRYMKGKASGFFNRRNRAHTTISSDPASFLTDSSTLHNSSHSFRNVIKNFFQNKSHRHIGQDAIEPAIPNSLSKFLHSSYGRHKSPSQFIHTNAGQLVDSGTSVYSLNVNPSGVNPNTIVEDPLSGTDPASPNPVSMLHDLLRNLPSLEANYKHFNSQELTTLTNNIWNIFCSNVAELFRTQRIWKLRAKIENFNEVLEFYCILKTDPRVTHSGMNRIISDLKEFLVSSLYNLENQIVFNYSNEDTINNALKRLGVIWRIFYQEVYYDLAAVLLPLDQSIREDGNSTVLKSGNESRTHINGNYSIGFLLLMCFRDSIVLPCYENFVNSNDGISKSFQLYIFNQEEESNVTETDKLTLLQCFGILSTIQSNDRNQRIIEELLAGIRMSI

Biological target: Bit61-TAP (S. cerevisiae (endogenous in yeast)) (UniProt P47041)
Test: affinity purification with mass spectrometry; eluate of the Bit61-TAP purification (about 0.5 ug) separated by SDS-PAGE, in-gel digest, LC-MS/MS, MaxQuant

binding: no binding
B1: Pil1 (native-source eisosome) (natural protein, S. cerevisiae (endogenous in yeast), UniProt P53252 1-339, looked up)
chain: MHRTYSLRNSRAPTASQLQNPPPPPSTTKGRFFGKGGLAYSFRRSAAGAFGPELSRKLSQLVKIEKNVLRSMELTANERRDAAKQLSIWGLENDDDVSDITDKLGVLIYEVSELDDQFIDRYDQYRLTLKSIRDIEGSVQPSRDRKDKITDKIAYLKYKDPQSPKIEVLEQELVRAEAESLVAEAQLSNITRSKLRAAFNYQFDSIIEHSEKIALIAGYGKALLELLDDSPVTPGETRPAYDGYEASKQIIIDAESALNEWTLDSAQVKPTLSFKQDYEDFEPEEGEEEEEEDGQGRWSEDEQEDGQIEEPEQEEEGAVEEHEQVGHQQSESLPQQTTA
notes: Pil1, BAR-domain eisosome protein of S. cerevisiae; model built up to residue 274 (C-terminal region from residue 275 removed, no density); Stands in the tubules as dimers in a helical lattice; also called Pil1/Lsp1; PIL1_YEAST; source: endogenous, untagged, S. cerevisiae

binding: no binding
B2: Lsp1 (native-source eisosome) (protein, UniProt Q12230 1-341)
chain: MHRTYSLRNQRAPTAAELQAPPPPPSSTKSKFFGKASIASSFRKNAAGNFGPELARKLSQLVKTEKGVLRAMEVVASERREAAKQLSLWGADNDDDVSDVTDKLGVLIYELGELQDQFIDKYDQYRVTLKSIRNIEASVQPSRDRKEKITDEIAHLKYKDPQSTKIPVLEQELVRAEAESLVAEAQLSNITREKLKAAYSYMFDSLRELSEKFALIAGYGKALLELLDDSPVTPGEARPAYDGYEASRQIIMDAESALESWTLDMAAVKPTLSFHQTVDDVYEDEDGEEEEEPEIQNGDIPGQVVEEEEVEWTTEVPVDDEAHEADHHVSQNGHTSGSENI
